# Several values for one entry are separate records, joined by “and”; a condition that tells them apart may be missing. Identical values can stand only once. Screen size: about 400,000 compounds; about 5,500 (1.4%) were called active. This list was built around the results that the source calls inconclusive (neither active nor inactive); the mix of calls is not that of the screen. The call rests on the fitted dose curve; in most records, active means well fitted cell-killing curve with a large enough effect; inconclusive means small, poorly fitted or top-dose-only effect, or effect the other way; inactive means flat fitted curve, though single readings scatter. A potency beside an inconclusive call is a rough fit, not a confirmed value.
# Test: qHTS assay for MDR1-selective chemotherapeutics: Primary screen using the parental adenocarcinoma cell KB-3-1; further: nearly all actives have a fitted effect of over 60% in size
# Settings: KB-3-1 viability, CellTiter-Glo ATP luminescence, 72 h; activity change, negative = cytotoxic: at 46.1 µM (top of the series)
# How it was run: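 KB-3-1 parental drug-naive adenocarcinoma cells in DMEM/10% FBS, incubated 72 h at 37 C with pin-transferred compounds across a concentration series. Viability by CellTiter-Glo luminescence; concentration-response curves fitted after normalization.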
# On the % scale 0 is the no-effect control and ±100 the full control effect; potency means the concentration at half of the fitted maximal effect.
SMILES,"activity change, negative = cytotoxic",Potency
CS(=O)(=O)N1CCc2cc(C(=O)Nc3cccc(F)c3)ccc21,inactive: 2.75%,
CC(C)(C)c1ccc(CN2N=C(/C=C/c3ccccc3)CCC2=O)cc1,inactive: 16.7%,
CC1=CC(C)(C)Nc2ccc(OC(=O)CN3C(=O)c4ccccc4C3=O)cc21,,"inconclusive: 29.1 µM [cytotoxic, single point]"
Cc1ccc(C)c(Cn2c3ccccc3c3cnn(CC(=O)NC(C)c4ccccc4)c(=O)c32)c1 (configuration not stated),inactive: -8.84%,
CC(C)OCCc1cccc[n+]1[O-],,"inconclusive: 0.0092 µM [rising, full curve]"
CCOC(=O)c1c(NC(=S)Nc2ccccc2)sc2c1CCCCC2,inactive: -2.77%,
CC(OC(=O)c1cc2sccc2n1C)C(=O)NCc1ccco1 (configuration not stated),inactive: 2.95%,
CCn1cc2nc(SCc3cccc(C(F)(F)F)c3)n(CCc3ccccc3)c(=O)c2n1,inactive: -4.21%,
COc1ccc(/C=N/N2CCN(Cc3ccccc3)CC2)cc1,inactive: 0.209%,
O=C(N/N=C/c1c[nH]c2ccccc12)c1cc(-c2cccc3ccccc23)n[nH]1,,"inconclusive: 29.1 µM [cytotoxic, single point]"
CCN1C(=C2C(=O)c3ccccc3C2=O)C=Cc2ccccc21,,"inconclusive: 6.51 µM [rising, partial curve, poor fit]"
COc1ccc(-c2[nH]c(-c3ccc(F)cc3)nc2SCC(=O)Nc2ccc(OC)c(OC)c2)cc1,inactive: -14.7%,
CC1=C(C(=O)N(C)C)CC(CC(=O)NC2CCCCC2)C(=O)N1CCC1=CCCCC1 (configuration not stated),inactive: -9.08%,
c1ccc(CSc2ccc(-c3ccccn3)nn2)cc1,,"inconclusive: 32.6 µM [cytotoxic, single point]"
CCN(CC)C(=O)Oc1ccc2c(=O)c(-c3ccccc3)coc2c1,inactive: -3.81%,
CN(Cc1ccco1)c1ncnc2ccc(-c3ccc4c(ccn4C)c3)cc12,,"inconclusive: 10.3 µM [cytotoxic, partial curve, poor fit]"
COCc1nnc(NC(=O)c2c(-c3c(Cl)cccc3Cl)noc2C)s1,inactive: 3.04%,
COC(=O)CN1C(=O)CC(C)(C)Sc2ccccc21,,"inconclusive: 29.1 µM [rising, partial curve, poor fit]"
COc1cc(/C=C2/C(=N)N3C=CSC3=NC2=O)ccc1OCCCOc1cc(C)ccc1C,,"inconclusive: 29.1 µM [cytotoxic, single point]"
N#C/C(=C\c1ccc(O)c(O)c1)C(=O)N1CCCC1,,"inconclusive: 23.1 µM [cytotoxic, single point]"
Cc1nn(Cc2ccccc2Cl)c(Cl)c1C(=O)NCCc1ccccc1,inactive: 3.3%,
COC(=O)[C@@]12CCCCN1[C@H](c1ccc(-c3ccc4c(c3)OCO4)c(OC)c1)[C@@H]1C(=O)N(C)C(=O)[C@@H]12,,"inconclusive: 29.1 µM [cytotoxic, single point]"
CC1CCCCC1NC(=O)COC(=O)COc1ccccc1F (configuration not stated),,"inconclusive: 0.103 µM [cytotoxic, full curve]"

SMILES,"activity change, negative = cytotoxic",Potency
O=C(NC12CC3CC(CC(C3)C1)C2)c1ccc(-c2ccccc2Cl)o1,,"inconclusive: 29.1 µM [cytotoxic, single point]"
COC(=O)c1ccc(OC)c(Cn2c(=O)n(-c3cccc(Cl)c3)c(=O)c3c2c2cc(C)ccc2n3C)c1,inactive: -3.49%,
O=C(CN1C(=O)c2ccccc2S1(=O)=O)NCCSCc1ccccc1Cl,,"inconclusive: 0.231 µM [rising, partial curve, poor fit]"
CC(C)(C)C(=O)Cn1ncc(Br)c(Br)c1=O,,active: 10.3 µM
O=C(NNc1ccccc1[N+](=O)[O-])Nc1ccc(Cl)c(Cl)c1,,"inconclusive: 25.9 µM [cytotoxic, single point]"
Cc1cccc(C)c1OCC(O)CN1CCN(c2ccccc2)CC1 (configuration not stated),inactive: -7.99%,
C/C=C(/C)C(=O)Nc1cccc(C2=NOC3(C2)C[C@@H](C(N)=O)N(C(=O)c2ccc(OC)cc2)C3)c1 (some centres not stated),,"inconclusive: 25.9 µM [rising, single point]"
CCOc1ccc(CN2CCN(CC3=Cc4cccc(OC)c4OC3)CC2CCO)cc1 (configuration not stated),,"inconclusive: 16.4 µM [cytotoxic, single point]"
Clc1cccc(Cl)c1C[n+]1ccc2ccccc2c1,,"inconclusive: 5.8 µM [cytotoxic, full curve]"
Cc1cc(S(=O)(=O)Nc2c(C)ccc3nsnc23)ccc1F,,"inconclusive: 16.4 µM [cytotoxic, partial curve, poor fit]"
COc1ccc(NS(=O)(=O)c2ccc(O)c(NC(=O)c3cc4c(C)nn(-c5ccc(F)cc5)c4s3)c2)cc1,,"inconclusive: 2.59 µM [cytotoxic, partial curve, poor fit]"
Cc1cc(NC(=O)c2ccc3c(c2)C(=O)N(C2CCCCC2)C3=O)no1,,"inconclusive: 29.1 µM [cytotoxic, single point]"
O=C(NCc1nc(-c2ccc(Cl)cc2)no1)c1ccco1,,"inconclusive: 29.1 µM [rising, single point]"
CCOc1ccc(S(=O)(=O)/N=C(/Nc2ccc(C)c(S(=O)(=O)N3CCOCC3)c2)c2ccccc2)cc1,inactive: -15.2%,
CC1Cc2ccccc2N1C(=O)CN(C)CC(=O)Nc1ccc(OC(F)(F)F)cc1 (configuration not stated),,"inconclusive: 29.1 µM [cytotoxic, single point]"
CCN(c1ccccc1)S(=O)(=O)c1cc(C(=O)Nc2ccc(Br)cc2)ccc1F,,"inconclusive: 29.1 µM [cytotoxic, single point]"
O=c1oc(-c2ccc(O)c(O)c2)cc2cc(O)cc(O)c12,inactive: -0.0415%,
Cc1ccc(C2(C)NC(=O)N(CC(=O)N(Cc3ccccc3)C(C)(C)C)C2=O)cc1 (configuration not stated),inactive: 4.53%,
CCOC(=O)c1c(Nc2ccccc2)nnc(-c2ccccc2)c1-c1ccccc1,,"inconclusive: 29.1 µM [cytotoxic, single point]"
CC(C)N(Cc1nc(-c2ccccc2)no1)C(=O)C1CCCCC1,,"inconclusive: 20.6 µM [cytotoxic, single point]"
O=C(Nc1nc(-c2ccccc2)cs1)c1ccc(=O)[nH]c1,,"inconclusive: 18.4 µM [cytotoxic, single point]"
CCCCNCc1cc(Br)c(OCc2cccs2)c(OC)c1,,"inconclusive: 29.1 µM [cytotoxic, single point]"
CN1CCN(c2ncc3c(n2)CCN(Cc2ccccc2Cl)C3)CC1,inactive: 7.36%,

SMILES,"activity change, negative = cytotoxic",Potency
CCOc1ccc(S(=O)(=O)n2nc(C)c(S(=O)(=O)N3CCCCCC3)c2C)cc1,inactive: 3.03%,
Cc1ccc(-n2ncc3c(NCCc4ccccc4)ncnc32)cc1,inactive: -15.9%,
COc1cccc(C(=O)Nc2ccc3c(c2)CCCN3C(=O)c2cccs2)c1OC,,"inconclusive: 20.6 µM [cytotoxic, single point] and active: 9.2 µM"
[O-]/C(=C(\C(=S)Nc1ccc(SC(F)F)cc1)[n+]1ccccc1)c1ccc(Cl)cc1Cl,,"inconclusive: 25.9 µM [cytotoxic, single point]"
CC1CCN(C(=O)N2c3ccccc3Sc3ccccc32)CC1,,"inconclusive: 25.9 µM [cytotoxic, single point]"
CCN(CC)c1ccc2nc3ccc(N)cc3[n+](-c3ccccc3)c2c1,,active: 0.731 µM
C[C@H](O)[C@@H]1C(=O)N2CCc3c([nH]c4ccccc34)[C@@H]2C[C@@H]1N(C)C(=O)Nc1cc(Cl)cc(Cl)c1,,"inconclusive: 0.517 µM [cytotoxic, full curve, poor fit]"
FC(F)(F)c1cccc(N2CCN(C(=S)NC3CCCC3)CC2)c1,,"inconclusive: 29.1 µM [cytotoxic, single point]"
CN1C(=O)CSc2ccc(NC(=O)Nc3ccccn3)cc21,,"inconclusive: 29.1 µM [cytotoxic, single point]"
CCOc1ccc(Nc2c(S(=O)(=O)c3ccc(C)cc3)cnc3ccccc23)cc1,,"inconclusive: 29.1 µM [cytotoxic, single point]"
CCC(c1nnnn1-c1c(C)cccc1C)N1CCN(C/C=C/c2ccccc2)CC1 (configuration not stated),,"inconclusive: 29.1 µM [cytotoxic, single point]"
CCOc1ccc(N2CC(c3nc4ccccc4n3CCC3CCCCC3)CC2=O)cc1 (configuration not stated),inactive: 0.235%,
CCOC(=O)c1ccc(N2C(=O)c3[nH]nc(-c4ccc(OC)cc4)c3C2c2ccc(C)cc2)cc1 (configuration not stated),,"inconclusive: 29.1 µM [cytotoxic, single point]"
COc1ccc2sc(N(Cc3cccnc3)C(=O)c3ccco3)nc2c1,inconclusive: -33.4% [cytotoxic],
CCOc1cc(NC(=O)c2ccccc2OC)c(OCC)cc1NC(=O)c1ccccc1,,"inconclusive: 2.91 µM [rising, partial curve, poor fit]"
COc1cccc(-c2cnc3c(NC(C)=O)cc(-c4ccc(C(=O)NC5CC5)cc4)cn23)c1,,"inconclusive: 29.1 µM [cytotoxic, single point]"
COc1ccc(OC)c(/C=C/C(=O)N2CCN(S(=O)(=O)c3ccc(C)cc3C)CC2)c1,,"inconclusive: 29.1 µM [cytotoxic, single point]"
Cc1ccc(NC(=O)Cn2cc(C(F)(F)F)cc(Cl)c2=O)cc1S(=O)(=O)N1CCCCC1,,"inconclusive: 23.1 µM [cytotoxic, partial curve, poor fit]"
Cc1nn(Cc2ccccc2)c(C)c1NC(=O)c1cc(-c2ccc3c(c2)OCO3)on1,,"inconclusive: 23.1 µM [cytotoxic, single point]"
COc1cccc2sc(N(CCCN(C)C)C(=O)c3ccc(S(=O)(=O)N4CCCc5ccccc54)cc3)nc12,,"inconclusive: 20.6 µM [cytotoxic, single point]"
Cc1ccc(-n2c(=O)c3c(C)c(C)sc3n(CC(=O)c3ccc(Cl)cc3)c2=O)cc1C,inactive: 4.86%,
